# In the supplement of paper PMC8728848:
# The other results are listed elsewhere or left out.
# B1: Aap arpt (Staphylococcus epidermidis) (protein)
# chain: NNEAPQMSSTLQAEEGSNAEAPQSEPTKAEEGGNAEAAQSEPTKAEEGGNAEAPQSEPTKAEEGGNAEAAQSEPTKTEEGSNVKAAQSEPTKAEEGSNAEAPQSEPTKTEEGSNAKAAQSEPTKAEEGGNAEAAQSEPTKTEEGSNAEAPQSEPTKAEEGGYAEAPQSEPTKTEEGGNAEAPNVPTIKA
# Key:
# Assay in all cases: glycan array binding signal (z-score within array); higher = stronger binding
# Settings in all cases: glycan notation: IUPAC condensed, linker removed
# Fuc(a1-2)Gal = biological target: Fuc(a1-2)Gal
# In short: (§1)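 Arrays were curated from the Consortium for Functional Glycomics database, 3228 in total, and kept only where the protein sequence was available. Binding is expressed as a within-array Z-score. This score was averaged across arrays of the same protein sequence at different concentrations or buffers and across linkers, and negative values can be read as non-binding.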
# Fuc(a1-2)Gal(b1-3)GalNAc = biological target: Fuc(a1-2)Gal(b1-3)GalNAc
# In short: as §1
# [1] = biological target: Fuc(a1-2)Gal(b1-3)GalNAc(a1-3)[Fuc(a1-2)]Gal(b1-4)Glc
# In short: as §1
# [2] = biological target: Fuc(a1-2)Gal(b1-3)GalNAc(a1-3)[Fuc(a1-2)]Gal(b1-4)GlcNAc
# In short: as §1
# [3] = biological target: Fuc(a1-2)Gal(b1-3)GalNAc(b1-3)Gal
# In short: as §1
# [4] = biological target: Fuc(a1-2)Gal(b1-3)GalNAc(b1-3)Gal(a1-4)Gal(b1-4)Glc
# In short: as §1
# [5] = biological target: Fuc(a1-2)Gal(b1-3)GalNAc(b1-4)[Neu5Ac(a2-3)]Gal(b1-4)Glc
# In short: as §1
# Fuc(a1-2)Gal(b1-3)GlcNAc = biological target: Fuc(a1-2)Gal(b1-3)GlcNAc
# In short: as §1
# [6] = biological target: Fuc(a1-2)Gal(b1-3)GlcNAc(b1-2)Man(a1-3)[Fuc(a1-2)Gal(b1-3)GlcNAc(b1-2)Man(a1-6)]Man(b1-4)GlcNAc(b1-4)GlcNAc
# In short: as §1
# [7] = biological target: Fuc(a1-2)Gal(b1-3)GlcNAc(b1-2)Man(a1-3)[Fuc(a1-2)Gal(b1-3)GlcNAc(b1-2)Man(a1-6)]Man(b1-4)GlcNAc(b1-4)[Fuc(a1-6)]GlcNAc
# In short: as §1
# [8] = biological target: Fuc(a1-2)Gal(b1-3)GlcNAc(b1-3)Gal(b1-4)Glc
# In short: as §1
# [9] = biological target: Fuc(a1-2)Gal(b1-3)GlcNAc(b1-3)GalNAc
# In short: as §1
# [10] = biological target: Fuc(a1-2)Gal(b1-3)GlcNAc(b1-3)[Fuc(a1-2)Gal(b1-3)GlcNAc(b1-6)]GalNAc
# In short: as §1
# [11] = biological target: Fuc(a1-2)Gal(b1-3)GlcNAc(b1-3)[Gal(b1-4)GlcNAc(b1-6)]Gal(b1-4)Glc
# In short: as §1
# [12] = biological target: Fuc(a1-2)Gal(b1-3)GlcNAc(b1-3)[Neu5Ac(a2-6)Gal(b1-4)GlcNAc(b1-6)]Gal(b1-4)Glc
# In short: as §1
# [13] = biological target: Fuc(a1-2)Gal(b1-3)GlcNAc6S
# In short: as §1
# [14] = biological target: Fuc(a1-2)Gal(b1-3)[Fuc(a1-4)]GlcNAc
# In short: as §1
# [15] = biological target: Fuc(a1-2)Gal(b1-3)[Fuc(a1-4)]GlcNAc(b1-2)Man(a1-3)[Fuc(a1-2)Gal(b1-3)[Fuc(a1-4)]GlcNAc(b1-2)Man(a1-3)]Man(b1-4)GlcNAc(b1-4)GlcNAc
# In short: as §1
# [16] = biological target: Fuc(a1-2)Gal(b1-3)[Fuc(a1-4)]GlcNAc(b1-2)Man(a1-3)[Fuc(a1-2)Gal(b1-3)[Fuc(a1-4)]GlcNAc(b1-2)Man(a1-6)]Man(b1-4)GlcNAc(b1-4)[Fuc(a1-6)]GlcNAc(b1-4)[Fuc(a1-6)]GlcNAc
# In short: as §1
# [17] = biological target: Fuc(a1-2)Gal(b1-3)[Fuc(a1-4)]GlcNAc(b1-3)[Fuc(a1-3)[Gal(b1-4)]GlcNAc(b1-6)]Gal(b1-4)Glc
# In short: as §1
# [18] = biological target: Fuc(a1-2)Gal(b1-3)[Fuc(a1-4)]GlcNAc(b1-3)[Gal(b1-4)GlcNAc(b1-6)]Gal(b1-4)Glc
# In short: as §1
# Fuc(a1-2)Gal(b1-4)Glc = biological target: Fuc(a1-2)Gal(b1-4)Glc
# In short: as §1
# Fuc(a1-2)Gal(b1-4)Glc6S = biological target: Fuc(a1-2)Gal(b1-4)Glc6S
# In short: as §1
# Fuc(a1-2)Gal(b1-4)GlcNAc = biological target: Fuc(a1-2)Gal(b1-4)GlcNAc
# In short: as §1
# [19] = biological target: Fuc(a1-2)Gal(b1-4)GlcNAc(b1-2)Man
# In short: as §1
# [20] = biological target: Fuc(a1-2)Gal(b1-4)GlcNAc(b1-2)Man(a1-3)[Fuc(a1-2)Gal(b1-4)GlcNAc(b1-2)Man(a1-6)]Man(b1-4)GlcNAc(b1-4)GlcNAc
# In short: as §1
# [21] = biological target: Fuc(a1-2)Gal(b1-4)GlcNAc(b1-2)Man(a1-3)[Fuc(a1-2)Gal(b1-4)GlcNAc(b1-2)Man(a1-6)]Man(b1-4)GlcNAc(b1-4)[Fuc(a1-6)]GlcNAc
# In short: as §1
# [22] = biological target: Fuc(a1-2)Gal(b1-4)GlcNAc(b1-2)[Fuc(a1-2)Gal(b1-4)GlcNAc(b1-4)]Man(a1-3)[Fuc(a1-2)Gal(b1-4)GlcNAc(b1-2)Man(a1-6)]Man(b1-4)GlcNAc(b1-4)GlcNAc
# In short: as §1
# [23] = biological target: Fuc(a1-2)Gal(b1-4)GlcNAc(b1-3)Gal(b1-4)GlcNAc
# In short: as §1
# [24] = biological target: Fuc(a1-2)Gal(b1-4)GlcNAc(b1-3)Gal(b1-4)GlcNAc(b1-2)Man(a1-3)[Fuc(a1-2)Gal(b1-4)GlcNAc(b1-3)Gal(b1-4)GlcNAc(b1-2)Man(a1-6)]Man(b1-4)GlcNAc(b1-4)GlcNAc
# In short: as §1
binder,measurement,setting,value
B1,glycan array binding signal (z-score),Fuc(a1-2)Gal,-0.31
same,glycan array binding signal (z-score),Fuc(a1-2)Gal(b1-3)GalNAc,-0.765
same,glycan array binding signal (z-score),[1],-0.816
same,glycan array binding signal (z-score),[2],-0.313
same,glycan array binding signal (z-score),[3],-2.19
same,glycan array binding signal (z-score),[4],-2.29
same,glycan array binding signal (z-score),[5],-0.337
same,glycan array binding signal (z-score),Fuc(a1-2)Gal(b1-3)GlcNAc,-1.01
same,glycan array binding signal (z-score),[6],1.6
same,glycan array binding signal (z-score),[7],-0.878
same,glycan array binding signal (z-score),[8],0.811
same,glycan array binding signal (z-score),[9],0.152
same,glycan array binding signal (z-score),[10],0.246
same,glycan array binding signal (z-score),[11],0.495
same,glycan array binding signal (z-score),[12],-1.65
same,glycan array binding signal (z-score),[13],-0.83
same,glycan array binding signal (z-score),[14],0.57
same,glycan array binding signal (z-score),[15],-0.438
same,glycan array binding signal (z-score),[16],1.28
same,glycan array binding signal (z-score),[17],0.019
same,glycan array binding signal (z-score),[18],1.14
same,glycan array binding signal (z-score),Fuc(a1-2)Gal(b1-4)Glc,-0.254
same,glycan array binding signal (z-score),Fuc(a1-2)Gal(b1-4)Glc6S,-1.03
same,glycan array binding signal (z-score),Fuc(a1-2)Gal(b1-4)GlcNAc,0.299
same,glycan array binding signal (z-score),[19],-0.069
same,glycan array binding signal (z-score),[20],1.23
same,glycan array binding signal (z-score),[21],-0.547
same,glycan array binding signal (z-score),[22],0.036
same,glycan array binding signal (z-score),[23],-0.424
same,glycan array binding signal (z-score),[24],-1.3

# For reference, part of the list above:
binder,measurement,setting,value
B1,glycan array binding signal (z-score),[12],-1.65
same,glycan array binding signal (z-score),[13],-0.83
